Source: patent publication US9682151B2, “Peptides whose uptake in cells is controllable” (The Regents of the University of California, priority 2009, dated 2017)
Some of these results come from one statement about several compounds together.

Tested on: kidney uptake
Assay: Preinjection of metalloproteinase and metallopeptidase inhibitors, uptake of PEGylated peptides
Assay type: in vivo, mice
Conditions: preinjection of inhibitor before PEGylated peptide

Row | SMILES | decrease of kidney uptake
1 | CCCCC[C@H](CC(=O)NO)C(=O)N[C@H](C(=O)N1CCC[C@H]1CO)C(C)C [actinonin] | up to 50%
2 | O=C(O)CNC(=O)C(CS)Cc1ccccc1 (centres unmarked) [thiorphan] | up to 50%
